Measurements from the supplement of paper PMC11006884.
The entries are a selection whose mix differs from that of the whole data set. Single values of this set are uncertain.

The chains behind the UniProt entries cited, without tags or fusion partners. Where a name states a change or a piece, a line headed by the entry shows the natural chain unless it says otherwise.
UniProt Q86YP4: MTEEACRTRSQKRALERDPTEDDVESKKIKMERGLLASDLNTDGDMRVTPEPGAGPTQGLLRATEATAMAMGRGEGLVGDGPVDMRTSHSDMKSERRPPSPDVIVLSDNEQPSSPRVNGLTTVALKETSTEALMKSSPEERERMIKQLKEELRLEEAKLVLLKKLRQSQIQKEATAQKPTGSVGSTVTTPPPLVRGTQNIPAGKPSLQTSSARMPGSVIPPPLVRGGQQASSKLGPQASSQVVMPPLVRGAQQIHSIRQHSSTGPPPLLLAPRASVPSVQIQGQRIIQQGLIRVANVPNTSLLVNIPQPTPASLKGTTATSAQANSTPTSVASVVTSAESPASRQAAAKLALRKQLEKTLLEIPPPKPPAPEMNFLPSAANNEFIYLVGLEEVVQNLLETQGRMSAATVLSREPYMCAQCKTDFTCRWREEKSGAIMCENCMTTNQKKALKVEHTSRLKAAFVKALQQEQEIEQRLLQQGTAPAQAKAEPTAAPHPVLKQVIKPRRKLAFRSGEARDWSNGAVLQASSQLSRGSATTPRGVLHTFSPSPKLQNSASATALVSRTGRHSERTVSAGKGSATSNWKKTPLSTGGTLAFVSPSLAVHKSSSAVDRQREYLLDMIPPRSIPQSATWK
UniProt Q7L2J0: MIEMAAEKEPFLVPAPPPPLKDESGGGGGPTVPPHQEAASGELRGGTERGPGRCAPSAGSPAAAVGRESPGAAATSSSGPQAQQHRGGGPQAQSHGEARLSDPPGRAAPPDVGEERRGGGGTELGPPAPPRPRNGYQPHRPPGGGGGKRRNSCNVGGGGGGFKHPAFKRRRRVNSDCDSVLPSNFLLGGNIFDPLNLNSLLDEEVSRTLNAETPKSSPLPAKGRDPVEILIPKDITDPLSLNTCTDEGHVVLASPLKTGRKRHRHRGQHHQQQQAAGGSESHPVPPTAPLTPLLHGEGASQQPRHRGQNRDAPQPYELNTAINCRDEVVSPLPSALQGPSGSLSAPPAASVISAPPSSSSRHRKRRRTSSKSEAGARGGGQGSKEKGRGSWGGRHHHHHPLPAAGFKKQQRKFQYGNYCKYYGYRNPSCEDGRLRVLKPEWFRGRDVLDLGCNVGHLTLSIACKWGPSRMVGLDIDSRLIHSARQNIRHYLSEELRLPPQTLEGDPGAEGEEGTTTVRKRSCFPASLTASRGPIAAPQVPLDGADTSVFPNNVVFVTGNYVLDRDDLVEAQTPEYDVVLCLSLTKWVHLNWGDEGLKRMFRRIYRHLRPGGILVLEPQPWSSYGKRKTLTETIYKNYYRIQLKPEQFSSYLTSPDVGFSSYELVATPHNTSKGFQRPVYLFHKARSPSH
UniProt Q86WB0: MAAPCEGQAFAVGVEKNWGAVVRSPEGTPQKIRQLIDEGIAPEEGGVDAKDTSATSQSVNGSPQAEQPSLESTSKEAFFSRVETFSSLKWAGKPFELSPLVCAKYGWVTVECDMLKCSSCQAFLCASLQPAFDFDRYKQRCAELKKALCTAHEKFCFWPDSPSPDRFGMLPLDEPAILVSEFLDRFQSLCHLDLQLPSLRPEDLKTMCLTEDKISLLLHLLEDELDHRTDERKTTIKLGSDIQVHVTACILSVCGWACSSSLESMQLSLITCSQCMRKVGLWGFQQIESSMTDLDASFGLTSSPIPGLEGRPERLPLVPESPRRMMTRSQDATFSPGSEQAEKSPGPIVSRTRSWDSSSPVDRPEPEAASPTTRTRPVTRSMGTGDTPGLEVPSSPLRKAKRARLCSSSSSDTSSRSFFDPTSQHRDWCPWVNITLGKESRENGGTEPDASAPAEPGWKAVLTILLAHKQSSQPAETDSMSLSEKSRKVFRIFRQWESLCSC
UniProt Q7Z3T8: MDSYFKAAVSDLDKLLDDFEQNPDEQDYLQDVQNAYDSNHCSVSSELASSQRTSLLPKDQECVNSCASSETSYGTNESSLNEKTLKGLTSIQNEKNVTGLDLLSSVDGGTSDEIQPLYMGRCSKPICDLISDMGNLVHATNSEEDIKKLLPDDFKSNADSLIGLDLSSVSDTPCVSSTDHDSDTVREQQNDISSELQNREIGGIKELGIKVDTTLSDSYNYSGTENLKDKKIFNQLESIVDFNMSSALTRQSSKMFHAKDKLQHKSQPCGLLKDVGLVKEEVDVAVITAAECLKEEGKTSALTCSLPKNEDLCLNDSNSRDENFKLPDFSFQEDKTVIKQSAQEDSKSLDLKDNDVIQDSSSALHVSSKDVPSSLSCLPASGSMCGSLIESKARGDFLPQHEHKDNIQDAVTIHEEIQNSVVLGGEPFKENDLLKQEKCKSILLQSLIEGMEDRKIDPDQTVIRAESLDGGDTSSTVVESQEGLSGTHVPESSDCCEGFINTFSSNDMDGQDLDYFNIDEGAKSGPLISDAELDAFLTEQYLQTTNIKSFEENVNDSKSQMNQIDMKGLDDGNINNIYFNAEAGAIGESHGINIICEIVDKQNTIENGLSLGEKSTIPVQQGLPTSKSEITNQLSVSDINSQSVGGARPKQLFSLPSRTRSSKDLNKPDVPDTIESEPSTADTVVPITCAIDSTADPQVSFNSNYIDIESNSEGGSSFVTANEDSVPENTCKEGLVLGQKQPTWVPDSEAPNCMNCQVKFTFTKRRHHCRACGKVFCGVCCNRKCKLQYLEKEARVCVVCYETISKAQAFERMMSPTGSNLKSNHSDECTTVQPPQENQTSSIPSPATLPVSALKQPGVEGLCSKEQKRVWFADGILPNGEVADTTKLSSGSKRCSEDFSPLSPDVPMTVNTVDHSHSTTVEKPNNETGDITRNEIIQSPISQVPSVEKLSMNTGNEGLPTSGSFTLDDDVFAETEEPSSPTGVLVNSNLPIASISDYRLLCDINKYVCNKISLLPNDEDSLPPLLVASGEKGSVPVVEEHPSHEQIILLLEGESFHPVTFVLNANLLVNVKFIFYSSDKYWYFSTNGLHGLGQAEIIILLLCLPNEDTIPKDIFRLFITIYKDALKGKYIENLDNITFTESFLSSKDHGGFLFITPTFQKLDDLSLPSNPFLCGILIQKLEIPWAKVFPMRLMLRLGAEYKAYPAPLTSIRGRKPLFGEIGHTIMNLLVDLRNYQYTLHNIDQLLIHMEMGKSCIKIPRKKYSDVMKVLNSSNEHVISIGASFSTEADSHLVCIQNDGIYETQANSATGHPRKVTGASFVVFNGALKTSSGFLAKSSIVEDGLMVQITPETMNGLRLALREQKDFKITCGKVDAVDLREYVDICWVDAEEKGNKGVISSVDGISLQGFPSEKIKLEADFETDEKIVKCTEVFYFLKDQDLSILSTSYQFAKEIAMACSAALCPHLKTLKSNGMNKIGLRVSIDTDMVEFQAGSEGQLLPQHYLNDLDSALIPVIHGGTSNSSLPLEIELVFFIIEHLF
UniProt Q8IY37: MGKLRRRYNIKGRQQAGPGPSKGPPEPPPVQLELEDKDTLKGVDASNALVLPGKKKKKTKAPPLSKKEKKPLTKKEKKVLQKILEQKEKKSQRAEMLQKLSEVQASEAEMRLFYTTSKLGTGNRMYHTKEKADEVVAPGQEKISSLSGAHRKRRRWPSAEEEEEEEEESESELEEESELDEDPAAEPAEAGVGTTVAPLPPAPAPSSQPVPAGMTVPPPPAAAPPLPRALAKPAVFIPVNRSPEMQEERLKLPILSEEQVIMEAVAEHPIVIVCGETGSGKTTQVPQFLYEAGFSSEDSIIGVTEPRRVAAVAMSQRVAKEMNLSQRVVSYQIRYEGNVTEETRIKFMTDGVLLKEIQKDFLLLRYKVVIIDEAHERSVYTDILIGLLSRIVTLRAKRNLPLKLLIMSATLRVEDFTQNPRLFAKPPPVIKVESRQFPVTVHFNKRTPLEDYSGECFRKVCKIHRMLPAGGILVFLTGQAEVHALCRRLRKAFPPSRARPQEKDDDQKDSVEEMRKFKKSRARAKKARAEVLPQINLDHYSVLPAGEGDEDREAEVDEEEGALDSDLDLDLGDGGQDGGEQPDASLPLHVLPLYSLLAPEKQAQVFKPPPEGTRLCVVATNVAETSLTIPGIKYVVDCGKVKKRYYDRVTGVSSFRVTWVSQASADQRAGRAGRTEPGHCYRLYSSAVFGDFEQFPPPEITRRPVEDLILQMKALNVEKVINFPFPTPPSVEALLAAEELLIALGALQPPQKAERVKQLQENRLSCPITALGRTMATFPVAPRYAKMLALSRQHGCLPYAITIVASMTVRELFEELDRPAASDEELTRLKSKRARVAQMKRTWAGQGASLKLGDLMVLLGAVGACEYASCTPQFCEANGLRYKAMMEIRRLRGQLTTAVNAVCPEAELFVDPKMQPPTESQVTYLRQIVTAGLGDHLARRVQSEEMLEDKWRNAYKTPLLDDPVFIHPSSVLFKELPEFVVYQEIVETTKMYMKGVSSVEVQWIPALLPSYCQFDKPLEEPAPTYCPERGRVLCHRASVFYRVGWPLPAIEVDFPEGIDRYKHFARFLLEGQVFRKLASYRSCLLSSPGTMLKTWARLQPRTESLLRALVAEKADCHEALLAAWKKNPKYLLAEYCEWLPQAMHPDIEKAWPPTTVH
UniProt Q86YV9: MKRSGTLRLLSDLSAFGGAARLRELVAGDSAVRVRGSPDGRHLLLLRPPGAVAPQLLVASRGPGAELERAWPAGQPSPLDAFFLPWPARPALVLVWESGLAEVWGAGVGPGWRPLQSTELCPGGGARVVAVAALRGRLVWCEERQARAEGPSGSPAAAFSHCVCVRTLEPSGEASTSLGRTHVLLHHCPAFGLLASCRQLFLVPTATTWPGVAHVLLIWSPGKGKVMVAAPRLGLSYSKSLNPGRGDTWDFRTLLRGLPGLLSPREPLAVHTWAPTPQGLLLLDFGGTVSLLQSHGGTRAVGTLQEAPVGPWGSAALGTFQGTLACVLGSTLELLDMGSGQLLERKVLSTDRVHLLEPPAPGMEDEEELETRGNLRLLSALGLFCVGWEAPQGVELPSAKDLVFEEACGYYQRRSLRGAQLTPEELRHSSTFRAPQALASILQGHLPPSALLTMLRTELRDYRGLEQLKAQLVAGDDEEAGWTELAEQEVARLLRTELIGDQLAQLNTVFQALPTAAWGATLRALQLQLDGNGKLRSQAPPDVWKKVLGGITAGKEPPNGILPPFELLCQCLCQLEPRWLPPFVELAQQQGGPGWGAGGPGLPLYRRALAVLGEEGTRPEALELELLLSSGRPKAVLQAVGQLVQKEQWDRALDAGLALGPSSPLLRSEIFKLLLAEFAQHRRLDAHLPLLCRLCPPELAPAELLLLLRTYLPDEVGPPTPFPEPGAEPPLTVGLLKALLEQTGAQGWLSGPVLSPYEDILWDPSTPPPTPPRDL
UniProt Q86Y56: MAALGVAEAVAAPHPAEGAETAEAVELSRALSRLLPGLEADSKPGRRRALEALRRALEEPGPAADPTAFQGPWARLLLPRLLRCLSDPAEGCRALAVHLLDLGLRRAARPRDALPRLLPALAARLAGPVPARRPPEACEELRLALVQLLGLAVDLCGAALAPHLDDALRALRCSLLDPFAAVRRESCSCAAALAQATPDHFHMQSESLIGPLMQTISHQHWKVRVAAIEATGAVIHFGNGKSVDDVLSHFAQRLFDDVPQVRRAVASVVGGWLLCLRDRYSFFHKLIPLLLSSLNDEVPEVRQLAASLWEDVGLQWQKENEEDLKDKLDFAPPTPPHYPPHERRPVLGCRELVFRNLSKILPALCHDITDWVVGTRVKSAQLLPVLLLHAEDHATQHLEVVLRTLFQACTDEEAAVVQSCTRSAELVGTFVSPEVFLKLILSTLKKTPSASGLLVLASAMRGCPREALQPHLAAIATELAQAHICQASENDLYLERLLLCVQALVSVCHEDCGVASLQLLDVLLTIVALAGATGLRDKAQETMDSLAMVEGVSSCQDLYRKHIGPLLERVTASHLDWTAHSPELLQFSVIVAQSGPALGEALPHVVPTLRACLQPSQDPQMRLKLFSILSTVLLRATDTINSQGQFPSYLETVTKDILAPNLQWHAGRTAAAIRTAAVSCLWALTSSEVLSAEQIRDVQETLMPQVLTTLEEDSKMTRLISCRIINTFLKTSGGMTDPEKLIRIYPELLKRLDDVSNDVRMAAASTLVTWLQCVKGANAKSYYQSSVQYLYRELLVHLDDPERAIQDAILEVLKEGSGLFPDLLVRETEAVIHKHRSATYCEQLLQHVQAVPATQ

compound: COC(=O)/C=C/c1ccccc1 [methyl cinnamate]; assay: log2 ratio of iodoacetamide-alkyne labeling of the cysteine site, DMSO over compound (competition); higher = stronger covalent engagement of the cysteine by the compound, active = 1 or more; details: 500 µM; treatment time 1 h; system: HEK293T cell lysate
Method in brief: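 The log2 competition ratio per cysteine is defined as mean reporter intensity in control channels over mean reporter intensity in compound channels. Lysate from HEK293T cells (2 mg/mL) received electrophile (500 µM) or vehicle for 1 h at ambient temperature, followed by iodoacetamide alkyne for 1 h. Samples were clicked to sCIP-TMT reagents, pooled, trypsin-digested overnight at 37 °C, streptavidin-enriched, acid-eluted and run on Orbitrap Eclipse LC-MS/MS with FAIMS, with quantification in FragPipe. Three replicates with duplicate channels were used, and any cysteine quantified in only one replicate was excluded.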

Target	log2 ratio of iodoacetamide-alkyne labeling
CAND1 C1007 (UniProt Q86VP6)	inactive: 0.243
GATAD2A C420 (UniProt Q86YP4)	inactive: 0.0595
GSPT2 C93 (UniProt Q8IYD1)	inactive: 0.444
MEPCE C177 (UniProt Q7L2J0)	inactive: 0.0226
ZC3HC1 C502 (UniProt Q86WB0)	inactive: 0.0565
SLFN11 C6 (UniProt Q7Z7L1)	inactive: 0.133
CYFIP1 C179 (UniProt Q7L576)	inactive: 0.427
ZFYVE16 C895 (UniProt Q7Z3T8)	inactive: 0.251
IRF2BP2 C16 (UniProt Q7Z5L9)	inactive: 0.12
DHX29 C1025 (UniProt Q7Z478)	inactive: 0.171
DHX37 C1083 (UniProt Q8IY37)	inactive: 0.484
HPS6 C408 (UniProt Q86YV9)	inactive: 0.221
UBR2 C1619 (UniProt Q8IWV8)	inactive: -0.042
UniProt Q86U38_C123	inactive: 0.0733
UniProt Q86Y56_C92	inactive: 0.144
